Values quoted from earlier work, collected in US8936808B1, “Opioid agonist/opioid antagonist/acetaminophen combinations” (Purdue Pharma L.P., priority 1997, dated 2015).
Counter-ions that a name gives are not always drawn.

Conditions: hydrochloride salt; cited from earlier work

## O=C1CC[C@@]2(O)[C@H]3Cc4ccc(O)c5c4[C@@]2(CCN3CC2CC2)[C@H]1O5 [hydrochloride salt of naltrexone, naltrexone hydrochloride]
  solubility in water: about 100 mg/cc
